These results are taken from paper PMC7819943, “Rice protein-binding microarrays: a tool to detect cis-acting elements near promoter regions in rice”.

This is one part of the list.

This test concerns the target T1, OsSMF1 (Oryza sativa, UniProt Q6ZLB0 1-436).
T1 sequence: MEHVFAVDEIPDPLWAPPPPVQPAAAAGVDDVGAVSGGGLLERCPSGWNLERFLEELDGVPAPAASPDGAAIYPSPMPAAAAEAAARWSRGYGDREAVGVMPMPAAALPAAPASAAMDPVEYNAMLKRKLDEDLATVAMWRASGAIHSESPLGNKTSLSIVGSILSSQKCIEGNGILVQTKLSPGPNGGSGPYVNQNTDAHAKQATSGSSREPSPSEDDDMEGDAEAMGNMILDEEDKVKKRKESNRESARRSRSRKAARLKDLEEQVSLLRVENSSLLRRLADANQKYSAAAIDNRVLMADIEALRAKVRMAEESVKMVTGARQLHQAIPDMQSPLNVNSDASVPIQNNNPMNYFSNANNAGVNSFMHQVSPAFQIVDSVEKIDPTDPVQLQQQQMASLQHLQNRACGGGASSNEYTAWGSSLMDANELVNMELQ
Briefly: protein-binding microarray (RPBM); PBS, 2% BSA, 51.3 ng/ul salmon testes DNA, 50 uM zinc acetate, 200 nM TF, 25 C, 1 h; high values mean tight binding. The note with it: protein: recombinant; tags: N-terminal polyhistidine and DsRed monomer fusion (pET32a); chain copies: 2; label: CyDye5-dUTP incorporated in the synthesized complementary strand; 3' TTTTT single-stranded linker to array surface; dsDNA, one strand shown. The essentials:
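Binding signal is defined as the fluorescence intensity of each feature in arbitrary units, read on an Axon 4000B scanner. Transcription factors with N-terminal polyhistidine and DsRed fusions came from E. coli BL21-CodonPlus and were purified on Ni–NTA. They were incubated at 200 nM for 1 h at 25 °C on a custom Agilent array that had been made double-stranded with Cy5-dUTP, with 50 µM zinc acetate present, and the array was washed.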
On to “CCCACCACCCGCCCCGCTCGCCGACGCGGCGGCCATGGCGCGGAGTCACCTAGTGCAG”, for which the binding signal is 4000 fluorescence intensity (a.u.). Consider “GTTGATTTGGTTCCACGCATCGCACGCAGCGTCCCGAGAGCGGAGTCACCTAGTGCAG”, for which the binding signal is 3590 fluorescence intensity (a.u.). “TCTCTCCATTTGACACGTACACGAATACCCCATCGTGCATCGGAGTCACCTAGTGCAG”: the binding signal is 23200 fluorescence intensity (a.u.). For “TGATGAAGGGGAAGAGATTATACACGTTGGTGGCTAGAGGCGGAGTCACCTAGTGCAG” the value was 3470 fluorescence intensity (a.u.); for “CTACACGACGACTGACGGCGACGTCAGTTCAGTTTAGTTTCGGAGTCACCTAGTGCAG”, 3660 fluorescence intensity (a.u.); for “GGGTGATTTGTTGCAACGGCGCGTGTGGTGGTGCGTGTGGCGGAGTCACCTAGTGCAG”, 3390 fluorescence intensity (a.u.).

In the case of “GCACCATCCCCGGTGATGCCCCACCACGTCCTCGACTCCCCGGAGTCACCTAGTGCAG”, the binding signal was 5180 fluorescence intensity (a.u.). The figure for “ATCGTCTCACTGTCTCACCGATCGAGCTAGCTCTCGTCGGCGGAGTCACCTAGTGCAG” is 3720 fluorescence intensity (a.u.); for “ACCGGCTCACTTATGCGCGCGCGGCGCTGAGGTGGCCGCACGGAGTCACCTAGTGCAG” it is 5200 fluorescence intensity (a.u.); for “CCCACCCGCGCTTCTTCGCCACCGCCTGACCTCCACCCTGCGGAGTCACCTAGTGCAG” it is 3210 fluorescence intensity (a.u.).

Take “CTTGTCGTGTCGTGTCGTGTCCTCACGTGCCGTGCCGCCCCGGAGTCACCTAGTGCAG”: the binding signal is 4600 fluorescence intensity (a.u.). For “CGGCATTATATACTAAAGAAAATGGAGGGAGTAGGAATCACGGAGTCACCTAGTGCAG” the value was 28700 fluorescence intensity (a.u.); for “CACCCAACCTGCTGACTCATCATGTGGCACTAGCTTCTCTCGGAGTCACCTAGTGCAG”, 16000 fluorescence intensity (a.u.).

In the case of “GCTTTTCCGGTGCCGCCGTGCGCCGCAATTCCGCAAACACCGGAGTCACCTAGTGCAG”, the binding signal is 3430 fluorescence intensity (a.u.). For “ACGTCCACGAGTCCATGTCATGACACACCCCAAGTTGCTGCGGAGTCACCTAGTGCAG” the value was 5510 fluorescence intensity (a.u.); for “AGCCGAGTAGCAGTGACGCCCGCACTATTGGCCTGATCAGCGGAGTCACCTAGTGCAG”, 3240 fluorescence intensity (a.u.). Regarding “ATAAAGTGGTTCTTTACACGTGTGACGATAAGACGTGAGTCGGAGTCACCTAGTGCAG”, the binding signal was 6920 fluorescence intensity (a.u.).

“CCGCTGTACTATACAAAGGATCGGACCAGGTAGCTGACTGCGGAGTCACCTAGTGCAG”: the binding signal was 5890 fluorescence intensity (a.u.). Consider “CCCCGTGGCGGTGGCGGAGGTGACGTCGTACTCCTGCTGCCGGAGTCACCTAGTGCAG”, for which the binding signal was 8170 fluorescence intensity (a.u.). The figure for “CTGCCTGCTCCGCCCGCGTGCCCGTCTTGGCCCCGTCACTCGGAGTCACCTAGTGCAG” is 4100 fluorescence intensity (a.u.); for “CTTATACACGTTGTTTCATTCCCAAGTCATGCATGAATAACGGAGTCACCTAGTGCAG” it is 4530 fluorescence intensity (a.u.); for “ATTTCTCGACGCAACGCGACACGACGTATACGTCACGACCCGGAGTCACCTAGTGCAG” it is 6900 fluorescence intensity (a.u.).

For the sequence “CCTAGCCCATCTCTCATCCAAGCTAAGTTTGACATGCCCGCGGAGTCACCTAGTGCAG”, the binding signal is 3300 fluorescence intensity (a.u.). For “CTAATATGGATAGATTGAAACATCAAGGACTAAACTGAGCCGGAGTCACCTAGTGCAG”, the binding signal was 3460 fluorescence intensity (a.u.). The figure for “TCTATTCATCCAAATTATGACACATGTACGCTCCATATTTCGGAGTCACCTAGTGCAG” is 3270 fluorescence intensity (a.u.); for “TTTCGACATCGTCTGCCACGTCAGCTTGCCCCTCCATTAGCGGAGTCACCTAGTGCAG” it is 26500 fluorescence intensity (a.u.); for “TTTAAATAACATGACGTGTAAAGGAAACATTGCACTAGTCCGGAGTCACCTAGTGCAG” it is 13300 fluorescence intensity (a.u.). The figure for “TCGCGTGTGGGAACATACTTCACCATTATCAACTTCCATGCGGAGTCACCTAGTGCAG” is 3660 fluorescence intensity (a.u.); for “GGCAGGCGCACGGCGAAGACCTCCGCCATGTGGCGAGTGTCGGAGTCACCTAGTGCAG” it is 3260 fluorescence intensity (a.u.); for “TCAGGATGACTCGAAGTCGAATCCGCGTAATACGCTGGCGCGGAGTCACCTAGTGCAG” it is 3370 fluorescence intensity (a.u.).

For the sequence “TCCATTTGGATGTAGCATTTTAGTCACCAGCCATTTTAGTCGGAGTCACCTAGTGCAG”, the binding signal is 3210 fluorescence intensity (a.u.). The figure for “GCCGGTTTCGCACAACCGCCGCGTAGGATCGTCGTGTGAACGGAGTCACCTAGTGCAG” is 6090 fluorescence intensity (a.u.); for “TCCATCCATCGCAGCCGGTTTGTCCTCTGAAAAGCACGCACGGAGTCACCTAGTGCAG” it is 25000 fluorescence intensity (a.u.). “CACCGCCGAACGCACGATTTCTTCCCGACGCTGTCACTTGCGGAGTCACCTAGTGCAG”: the binding signal is 4340 fluorescence intensity (a.u.). On to “AACGATCCATCGCTGGCGGCGGCGGCGGTGGCGAAGACCGCGGAGTCACCTAGTGCAG”, for which the binding signal is 3150 fluorescence intensity (a.u.). The figure for “CGGCGAAACCAAACGCAGCCACGCCGGCACGGCACGCGCGCGGAGTCACCTAGTGCAG” is 13600 fluorescence intensity (a.u.). On to “CTTCTGATCAGATTCAGATTGCCAACACTGCAACCTTCTGCGGAGTCACCTAGTGCAG”, for which the binding signal is 3410 fluorescence intensity (a.u.). For “TGTGTGTATAAATCTATGACAGGTGGGACCAGACGTTAATCGGAGTCACCTAGTGCAG”, the binding signal was 3300 fluorescence intensity (a.u.). For “CCGATCCACCCAACCAACCAAGCGCCCGCCGGCCTCGTCGCGGAGTCACCTAGTGCAG” the value was 11800 fluorescence intensity (a.u.); for “GTTCGGGTTGAGCTCACGCTCCTCAGATTTAATGACGAACCGGAGTCACCTAGTGCAG”, 36400 fluorescence intensity (a.u.).

As for “CGCCGCCGCCGCCGCCCGCGCGCGCGCGAGATCTCGCCGGCGGAGTCACCTAGTGCAG”, the binding signal was 3140 fluorescence intensity (a.u.).

In the case of “AATGGCTGTTTGTTCCTTGATTGCCACGTCTCTTTCCATCCGGAGTCACCTAGTGCAG”, the binding signal is 4360 fluorescence intensity (a.u.).
